Changes are numbered by the printed parent chain. No constants are given. Whether binding was seen depends on the method and setting. Some binding calls cover weakened binding; strength is not graded here. Values belong to the binder of their own block, whether it stands above or below them.
Target: recombinant DR5 antigen (human) (UniProt O14763)
Assay: bio-layer interferometry (ForteBio Octet), biotinylated antigen on neutravidin sensors

Protein sequences, listed by entry. Tags and fused reporters are not part of them. Residues count along the entry.
UniProt O14763, residues 56-182: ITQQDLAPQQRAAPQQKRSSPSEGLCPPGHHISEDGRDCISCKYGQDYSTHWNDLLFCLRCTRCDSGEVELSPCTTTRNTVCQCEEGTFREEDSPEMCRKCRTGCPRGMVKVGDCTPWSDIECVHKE

binding: binds
B1: Fab' DR106-2 (Fab, V domains shown)
VH: EVQLVQSGAEVKKPGASVKVSCKASGYTFTSYTMHWVRQAPGQGLEWMGWIYPGGGYTKYAQKFKGRVTMTGDTSTSTVYMELSSLRSEDTAVYYCARHEEGIYFDKWGQGTLVTVSS
VL: DIVMTQSPDSLAASLGEKATINCKSSQSFLGSSNGKNYVAWYQQKPGQPPKLLIYWASMRVSGVPDRFSGSGSGTDFTLTISSLQAEDVAVYYCQQHYITPFTFGQGTKLEIK

binding: binds
B2: Fab' DR114-1 (Fab, V domains shown)
VH: B1 VH
VL: DIQLTQSPSSLSASVGDRVTITCRASQDVSGALAWYQQKPGQPPKLLIYWASTRESGVPDRFSGSGSGTDFTLTISSLQAEDVAVYYCQQHYITPFTFGQGTKLEIK

binding: binds
B3: Fab' DR112-1 (Fab, V domains shown)
VH: B1 VH
VL: B1 VL with K18R, M59T, V61E
